Data as given in PMC9839743.

Amino acid sequences for entries named in this document (tags omitted).
UniProt O75884: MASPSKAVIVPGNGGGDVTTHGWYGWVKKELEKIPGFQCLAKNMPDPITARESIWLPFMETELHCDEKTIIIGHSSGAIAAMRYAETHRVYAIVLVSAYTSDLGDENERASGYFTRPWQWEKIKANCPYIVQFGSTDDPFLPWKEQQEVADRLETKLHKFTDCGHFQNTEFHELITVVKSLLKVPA
UniProt O94762: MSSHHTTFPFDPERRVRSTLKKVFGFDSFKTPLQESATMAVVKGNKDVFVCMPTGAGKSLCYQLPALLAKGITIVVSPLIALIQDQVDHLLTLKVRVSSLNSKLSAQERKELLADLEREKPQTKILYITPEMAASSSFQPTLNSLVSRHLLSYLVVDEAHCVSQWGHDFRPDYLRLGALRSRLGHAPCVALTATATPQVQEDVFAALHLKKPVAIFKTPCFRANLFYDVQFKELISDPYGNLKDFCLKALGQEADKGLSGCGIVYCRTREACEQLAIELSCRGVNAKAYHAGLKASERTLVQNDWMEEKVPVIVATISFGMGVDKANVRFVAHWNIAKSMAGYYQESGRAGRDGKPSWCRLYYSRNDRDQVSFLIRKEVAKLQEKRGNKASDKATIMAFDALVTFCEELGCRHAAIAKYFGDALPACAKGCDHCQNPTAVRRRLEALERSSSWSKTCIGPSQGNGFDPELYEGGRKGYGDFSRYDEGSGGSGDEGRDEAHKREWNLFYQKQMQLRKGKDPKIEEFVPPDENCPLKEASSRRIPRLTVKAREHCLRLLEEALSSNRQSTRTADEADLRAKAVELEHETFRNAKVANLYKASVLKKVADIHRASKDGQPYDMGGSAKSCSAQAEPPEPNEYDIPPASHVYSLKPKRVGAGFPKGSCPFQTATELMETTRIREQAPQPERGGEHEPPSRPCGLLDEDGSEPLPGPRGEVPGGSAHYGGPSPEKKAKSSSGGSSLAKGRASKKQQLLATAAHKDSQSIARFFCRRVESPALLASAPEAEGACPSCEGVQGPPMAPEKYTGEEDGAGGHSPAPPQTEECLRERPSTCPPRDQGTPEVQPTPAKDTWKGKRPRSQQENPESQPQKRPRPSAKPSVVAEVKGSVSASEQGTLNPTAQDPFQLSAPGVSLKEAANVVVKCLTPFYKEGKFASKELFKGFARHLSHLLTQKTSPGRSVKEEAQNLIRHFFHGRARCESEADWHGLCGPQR
UniProt Q5UIP0: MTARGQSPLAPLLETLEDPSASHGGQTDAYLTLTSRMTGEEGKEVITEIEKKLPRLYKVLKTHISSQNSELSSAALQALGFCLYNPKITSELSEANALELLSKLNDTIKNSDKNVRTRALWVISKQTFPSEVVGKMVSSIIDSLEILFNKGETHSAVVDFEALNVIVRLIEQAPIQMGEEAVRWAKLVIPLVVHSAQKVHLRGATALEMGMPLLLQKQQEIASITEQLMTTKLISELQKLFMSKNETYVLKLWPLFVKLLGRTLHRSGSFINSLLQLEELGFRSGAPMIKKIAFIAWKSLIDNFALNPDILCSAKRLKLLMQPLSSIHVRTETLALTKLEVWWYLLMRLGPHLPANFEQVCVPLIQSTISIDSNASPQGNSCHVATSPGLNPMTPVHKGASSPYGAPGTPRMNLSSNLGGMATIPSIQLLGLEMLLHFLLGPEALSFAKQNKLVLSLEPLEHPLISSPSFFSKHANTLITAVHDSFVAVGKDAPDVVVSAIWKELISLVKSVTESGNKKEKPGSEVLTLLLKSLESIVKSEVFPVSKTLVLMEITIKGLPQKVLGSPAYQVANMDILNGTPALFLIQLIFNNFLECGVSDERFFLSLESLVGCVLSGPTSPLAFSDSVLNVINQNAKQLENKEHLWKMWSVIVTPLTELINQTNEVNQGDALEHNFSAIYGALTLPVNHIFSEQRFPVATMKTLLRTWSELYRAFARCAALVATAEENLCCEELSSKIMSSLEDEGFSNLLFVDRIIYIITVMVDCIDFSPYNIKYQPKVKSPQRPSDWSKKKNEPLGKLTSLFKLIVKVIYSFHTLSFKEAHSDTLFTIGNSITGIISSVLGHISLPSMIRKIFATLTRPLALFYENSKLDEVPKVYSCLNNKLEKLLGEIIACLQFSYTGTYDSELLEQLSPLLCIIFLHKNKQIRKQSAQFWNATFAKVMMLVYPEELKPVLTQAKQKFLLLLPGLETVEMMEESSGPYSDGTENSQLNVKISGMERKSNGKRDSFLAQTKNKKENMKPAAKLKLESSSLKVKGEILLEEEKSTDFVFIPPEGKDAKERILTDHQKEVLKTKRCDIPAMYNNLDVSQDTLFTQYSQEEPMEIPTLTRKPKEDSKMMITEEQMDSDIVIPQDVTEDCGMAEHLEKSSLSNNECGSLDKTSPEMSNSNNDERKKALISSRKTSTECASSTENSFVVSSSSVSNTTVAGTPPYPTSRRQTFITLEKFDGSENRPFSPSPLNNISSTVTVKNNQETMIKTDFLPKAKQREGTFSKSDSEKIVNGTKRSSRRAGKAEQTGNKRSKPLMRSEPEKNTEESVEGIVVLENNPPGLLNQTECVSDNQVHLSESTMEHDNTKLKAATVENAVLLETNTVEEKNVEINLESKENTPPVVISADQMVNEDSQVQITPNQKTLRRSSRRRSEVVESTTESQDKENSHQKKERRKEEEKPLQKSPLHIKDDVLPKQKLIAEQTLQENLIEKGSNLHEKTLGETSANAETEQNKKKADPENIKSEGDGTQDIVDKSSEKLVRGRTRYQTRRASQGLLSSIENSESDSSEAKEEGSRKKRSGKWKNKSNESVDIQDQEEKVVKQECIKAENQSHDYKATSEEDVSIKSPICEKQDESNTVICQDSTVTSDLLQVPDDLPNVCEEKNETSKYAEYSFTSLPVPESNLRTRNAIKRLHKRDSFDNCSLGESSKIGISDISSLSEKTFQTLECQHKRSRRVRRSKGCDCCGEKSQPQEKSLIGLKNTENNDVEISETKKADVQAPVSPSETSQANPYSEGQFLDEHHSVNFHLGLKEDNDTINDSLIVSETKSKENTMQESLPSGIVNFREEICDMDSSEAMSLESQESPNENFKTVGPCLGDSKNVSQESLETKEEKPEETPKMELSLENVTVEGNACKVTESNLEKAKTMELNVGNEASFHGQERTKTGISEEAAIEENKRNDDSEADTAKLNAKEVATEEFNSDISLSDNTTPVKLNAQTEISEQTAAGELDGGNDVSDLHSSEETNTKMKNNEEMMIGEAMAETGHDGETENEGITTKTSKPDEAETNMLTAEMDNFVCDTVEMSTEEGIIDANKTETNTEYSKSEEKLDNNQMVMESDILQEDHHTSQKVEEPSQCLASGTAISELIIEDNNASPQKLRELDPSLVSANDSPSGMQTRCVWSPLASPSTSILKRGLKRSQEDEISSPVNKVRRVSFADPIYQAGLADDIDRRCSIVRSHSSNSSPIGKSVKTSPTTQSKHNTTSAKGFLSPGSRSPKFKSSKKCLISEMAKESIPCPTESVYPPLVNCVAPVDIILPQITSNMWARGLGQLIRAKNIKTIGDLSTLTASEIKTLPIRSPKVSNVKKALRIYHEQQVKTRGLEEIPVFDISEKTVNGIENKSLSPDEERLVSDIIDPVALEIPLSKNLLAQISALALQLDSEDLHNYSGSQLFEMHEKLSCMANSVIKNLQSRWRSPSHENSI
UniProt P62318: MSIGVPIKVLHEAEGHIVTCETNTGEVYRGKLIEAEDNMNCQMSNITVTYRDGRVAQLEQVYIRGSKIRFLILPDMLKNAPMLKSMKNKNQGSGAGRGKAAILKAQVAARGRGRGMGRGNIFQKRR

B1: MCM5 (protein, UniProt P33992 1-734)
chain: MSGFDDPGIFYSDSFGGDAQADEGQARKSQLQRRFKEFLRQYRVGTDRTGFTFKYRDELKRHYNLGEYWIEVEMEDLASFDEDLADYLYKQPAEHLQLLEEAAKEVADEVTRPRPSGEEVLQDIQVMLKSDASPSSIRSLKSDMMSHLVKIPGIIIAASAVRAKATRISIQCRSCRNTLTNIAMRPGLEGYALPRKCNTDQAGRPKCPLDPYFIMPDKCKCVDFQTLKLQELPDAVPHGEMPRHMQLYCDRYLCDKVVPGNRVTIMGIYSIKKFGLTTSRGRDRVGVGIRSSYIRVLGIQVDTDGSGRSFAGAVSPQEEEEFRRLAALPNVYEVISKSIAPSIFGGTDMKKAIACLLFGGSRKRLPDGLTRRGDINLLMLGDPGTAKSQLLKFVEKCSPIGVYTSGKGSSAAGLTASVMRDPSSRNFIMEGGAMVLADGGVVCIDEFDKMREDDRVAIHEAMEQQTISIAKAGITTTLNSRCSVLAAANSVFGRWDETKGEDNIDFMPTILSRFDMIFIVKDEHNEERDVMLAKHVITLHVSALTQTQAVEGEIDLAKLKKFIAYCRVKCGPRLSAEAAEKLKNRYIIMRSGARQHERDSDRRSSIPITVRQLEAIVRIAEALSKMKLQPFATEADVEEALRLFQVSTLDAALSGTLSGVEGFTSQEDQEMLSRIEKQLKRRFAIGSQVSEHSIIKDFTKQKYPEHAIHKVLQLMLRRGEIQHRMQRKVLYRLK

Molecular target: retinoblastoma binding protein 9 (RBBP9), FLAG-tagged (human) (UniProt O75884)
Assay: affinity purification with mass spectrometry; RBBP9-FLAG overexpressed in HEK293T for 48 h; cleared lysate (1% Nonidet P-40 substitute, 10% glycerol, 50 mM MgCl2, 200 mM NaCl) on anti-FLAG M2 beads overnight at 4 °C; eluted with 3x FLAG peptide; GeLC-MS/MS with spectral counting; FLAG-FANCC co-IP as control

binding, binds:
RECQL5 (from UniProt O94762 1-991)
RIF1 (from UniProt Q5UIP0 1-2472)
SNRPD3 (from UniProt P62318 1-126)
B1

No constants are given. Whether binding was seen depends on the method and setting. In cells and extracts the contact can be indirect. These calls come from enrichment with a bait or labelling near it, and not all partners need be listed.
